Experimental data from the supplement of paper PMC10849652.
The list shows a part of the results.

The chains behind the UniProt entries cited, without tags or fusion partners. Where a name states a change or a piece, a line headed by the entry shows the natural chain unless it says otherwise.
UniProt Q8IX07: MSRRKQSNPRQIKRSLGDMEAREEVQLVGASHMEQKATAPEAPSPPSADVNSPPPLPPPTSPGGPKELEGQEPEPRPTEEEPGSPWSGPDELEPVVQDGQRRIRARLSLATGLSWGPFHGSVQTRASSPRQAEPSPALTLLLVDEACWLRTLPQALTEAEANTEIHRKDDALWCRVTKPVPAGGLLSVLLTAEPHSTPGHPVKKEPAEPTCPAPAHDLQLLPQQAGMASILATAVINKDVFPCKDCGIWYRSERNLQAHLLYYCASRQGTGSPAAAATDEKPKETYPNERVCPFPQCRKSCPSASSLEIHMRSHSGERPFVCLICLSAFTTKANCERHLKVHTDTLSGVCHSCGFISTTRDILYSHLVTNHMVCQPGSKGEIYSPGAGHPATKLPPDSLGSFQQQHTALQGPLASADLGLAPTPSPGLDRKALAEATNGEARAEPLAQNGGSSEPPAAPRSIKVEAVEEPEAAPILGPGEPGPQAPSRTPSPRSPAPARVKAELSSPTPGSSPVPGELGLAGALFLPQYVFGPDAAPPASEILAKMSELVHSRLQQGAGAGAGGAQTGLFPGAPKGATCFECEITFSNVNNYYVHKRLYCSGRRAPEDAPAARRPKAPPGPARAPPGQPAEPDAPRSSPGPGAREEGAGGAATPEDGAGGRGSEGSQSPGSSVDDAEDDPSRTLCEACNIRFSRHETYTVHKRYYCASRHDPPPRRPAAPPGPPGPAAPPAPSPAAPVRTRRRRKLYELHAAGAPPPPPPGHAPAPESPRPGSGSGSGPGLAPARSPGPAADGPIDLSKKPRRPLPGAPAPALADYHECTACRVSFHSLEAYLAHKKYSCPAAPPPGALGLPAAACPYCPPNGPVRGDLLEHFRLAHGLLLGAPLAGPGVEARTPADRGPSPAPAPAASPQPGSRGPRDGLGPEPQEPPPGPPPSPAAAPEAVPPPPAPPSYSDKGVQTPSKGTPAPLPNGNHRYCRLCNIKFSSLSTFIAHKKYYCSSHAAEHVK
UniProt Q9Y5A9: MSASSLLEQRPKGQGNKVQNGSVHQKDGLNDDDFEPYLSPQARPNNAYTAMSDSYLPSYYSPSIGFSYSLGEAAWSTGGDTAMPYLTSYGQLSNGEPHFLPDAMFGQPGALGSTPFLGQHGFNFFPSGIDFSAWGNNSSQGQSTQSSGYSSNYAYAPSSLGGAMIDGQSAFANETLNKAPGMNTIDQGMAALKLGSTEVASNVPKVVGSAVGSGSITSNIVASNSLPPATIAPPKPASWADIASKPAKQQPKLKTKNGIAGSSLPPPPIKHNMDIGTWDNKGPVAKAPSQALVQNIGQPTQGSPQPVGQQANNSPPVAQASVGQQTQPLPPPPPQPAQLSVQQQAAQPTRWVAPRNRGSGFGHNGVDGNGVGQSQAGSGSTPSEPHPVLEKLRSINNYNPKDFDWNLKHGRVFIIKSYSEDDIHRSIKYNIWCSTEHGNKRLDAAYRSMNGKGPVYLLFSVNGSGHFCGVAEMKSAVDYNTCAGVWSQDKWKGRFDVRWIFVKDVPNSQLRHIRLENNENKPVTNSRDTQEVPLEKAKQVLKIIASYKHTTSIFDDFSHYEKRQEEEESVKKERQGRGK
UniProt Q8IUH4: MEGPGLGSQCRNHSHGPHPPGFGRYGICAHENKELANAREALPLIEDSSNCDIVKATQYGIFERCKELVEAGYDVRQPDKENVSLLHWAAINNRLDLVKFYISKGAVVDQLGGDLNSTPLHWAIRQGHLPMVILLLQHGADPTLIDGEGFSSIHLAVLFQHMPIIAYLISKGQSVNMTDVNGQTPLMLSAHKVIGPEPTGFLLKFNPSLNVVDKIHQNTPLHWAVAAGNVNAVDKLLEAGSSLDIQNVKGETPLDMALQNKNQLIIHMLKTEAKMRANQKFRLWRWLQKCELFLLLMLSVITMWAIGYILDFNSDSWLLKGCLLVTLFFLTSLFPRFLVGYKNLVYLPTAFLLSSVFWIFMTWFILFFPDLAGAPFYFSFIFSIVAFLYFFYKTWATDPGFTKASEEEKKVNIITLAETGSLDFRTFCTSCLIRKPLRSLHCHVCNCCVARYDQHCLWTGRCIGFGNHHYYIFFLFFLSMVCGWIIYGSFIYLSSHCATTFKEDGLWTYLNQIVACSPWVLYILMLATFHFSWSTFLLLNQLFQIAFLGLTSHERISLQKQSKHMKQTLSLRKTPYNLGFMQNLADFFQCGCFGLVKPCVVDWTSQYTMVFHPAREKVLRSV
UniProt Q9NQH7: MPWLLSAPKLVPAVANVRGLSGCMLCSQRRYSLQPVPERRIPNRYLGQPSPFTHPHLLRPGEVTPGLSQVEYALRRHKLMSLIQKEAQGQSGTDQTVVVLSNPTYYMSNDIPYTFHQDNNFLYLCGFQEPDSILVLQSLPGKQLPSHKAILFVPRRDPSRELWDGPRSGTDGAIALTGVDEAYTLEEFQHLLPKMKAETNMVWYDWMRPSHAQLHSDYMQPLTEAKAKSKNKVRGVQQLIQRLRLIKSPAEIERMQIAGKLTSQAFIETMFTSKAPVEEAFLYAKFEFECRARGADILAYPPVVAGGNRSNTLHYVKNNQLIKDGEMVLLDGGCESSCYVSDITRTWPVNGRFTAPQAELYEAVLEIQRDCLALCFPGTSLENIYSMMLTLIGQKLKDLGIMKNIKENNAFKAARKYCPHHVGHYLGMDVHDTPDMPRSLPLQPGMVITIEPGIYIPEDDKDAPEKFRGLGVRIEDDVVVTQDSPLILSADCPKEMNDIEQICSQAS
UniProt Q9BW85: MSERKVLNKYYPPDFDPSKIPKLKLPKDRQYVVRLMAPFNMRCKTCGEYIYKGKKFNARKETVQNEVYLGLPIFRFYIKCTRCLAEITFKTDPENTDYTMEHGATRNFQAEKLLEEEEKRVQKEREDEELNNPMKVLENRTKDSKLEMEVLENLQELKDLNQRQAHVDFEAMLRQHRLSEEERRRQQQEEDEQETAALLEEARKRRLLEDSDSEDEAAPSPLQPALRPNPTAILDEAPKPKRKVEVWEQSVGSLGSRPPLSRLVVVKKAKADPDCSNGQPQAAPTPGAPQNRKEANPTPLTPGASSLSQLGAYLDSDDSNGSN
UniProt Q9NPG8: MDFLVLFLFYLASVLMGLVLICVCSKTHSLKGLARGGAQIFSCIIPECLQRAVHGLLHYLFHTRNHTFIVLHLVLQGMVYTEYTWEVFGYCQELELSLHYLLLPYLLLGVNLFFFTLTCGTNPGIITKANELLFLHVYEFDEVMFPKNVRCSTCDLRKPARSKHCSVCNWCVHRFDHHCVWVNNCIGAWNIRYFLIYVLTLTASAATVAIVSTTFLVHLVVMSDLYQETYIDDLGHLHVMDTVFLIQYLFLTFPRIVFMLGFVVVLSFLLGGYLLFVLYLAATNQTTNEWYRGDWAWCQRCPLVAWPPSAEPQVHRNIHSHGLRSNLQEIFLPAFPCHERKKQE
UniProt O95070: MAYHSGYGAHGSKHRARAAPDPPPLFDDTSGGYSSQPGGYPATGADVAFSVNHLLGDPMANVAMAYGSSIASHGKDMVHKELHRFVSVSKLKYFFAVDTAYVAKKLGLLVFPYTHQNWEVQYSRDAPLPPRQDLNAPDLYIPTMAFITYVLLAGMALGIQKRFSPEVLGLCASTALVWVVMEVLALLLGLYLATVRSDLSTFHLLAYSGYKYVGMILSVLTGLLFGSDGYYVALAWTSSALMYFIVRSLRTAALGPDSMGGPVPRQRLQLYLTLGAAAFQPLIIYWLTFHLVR
UniProt Q5VZL5: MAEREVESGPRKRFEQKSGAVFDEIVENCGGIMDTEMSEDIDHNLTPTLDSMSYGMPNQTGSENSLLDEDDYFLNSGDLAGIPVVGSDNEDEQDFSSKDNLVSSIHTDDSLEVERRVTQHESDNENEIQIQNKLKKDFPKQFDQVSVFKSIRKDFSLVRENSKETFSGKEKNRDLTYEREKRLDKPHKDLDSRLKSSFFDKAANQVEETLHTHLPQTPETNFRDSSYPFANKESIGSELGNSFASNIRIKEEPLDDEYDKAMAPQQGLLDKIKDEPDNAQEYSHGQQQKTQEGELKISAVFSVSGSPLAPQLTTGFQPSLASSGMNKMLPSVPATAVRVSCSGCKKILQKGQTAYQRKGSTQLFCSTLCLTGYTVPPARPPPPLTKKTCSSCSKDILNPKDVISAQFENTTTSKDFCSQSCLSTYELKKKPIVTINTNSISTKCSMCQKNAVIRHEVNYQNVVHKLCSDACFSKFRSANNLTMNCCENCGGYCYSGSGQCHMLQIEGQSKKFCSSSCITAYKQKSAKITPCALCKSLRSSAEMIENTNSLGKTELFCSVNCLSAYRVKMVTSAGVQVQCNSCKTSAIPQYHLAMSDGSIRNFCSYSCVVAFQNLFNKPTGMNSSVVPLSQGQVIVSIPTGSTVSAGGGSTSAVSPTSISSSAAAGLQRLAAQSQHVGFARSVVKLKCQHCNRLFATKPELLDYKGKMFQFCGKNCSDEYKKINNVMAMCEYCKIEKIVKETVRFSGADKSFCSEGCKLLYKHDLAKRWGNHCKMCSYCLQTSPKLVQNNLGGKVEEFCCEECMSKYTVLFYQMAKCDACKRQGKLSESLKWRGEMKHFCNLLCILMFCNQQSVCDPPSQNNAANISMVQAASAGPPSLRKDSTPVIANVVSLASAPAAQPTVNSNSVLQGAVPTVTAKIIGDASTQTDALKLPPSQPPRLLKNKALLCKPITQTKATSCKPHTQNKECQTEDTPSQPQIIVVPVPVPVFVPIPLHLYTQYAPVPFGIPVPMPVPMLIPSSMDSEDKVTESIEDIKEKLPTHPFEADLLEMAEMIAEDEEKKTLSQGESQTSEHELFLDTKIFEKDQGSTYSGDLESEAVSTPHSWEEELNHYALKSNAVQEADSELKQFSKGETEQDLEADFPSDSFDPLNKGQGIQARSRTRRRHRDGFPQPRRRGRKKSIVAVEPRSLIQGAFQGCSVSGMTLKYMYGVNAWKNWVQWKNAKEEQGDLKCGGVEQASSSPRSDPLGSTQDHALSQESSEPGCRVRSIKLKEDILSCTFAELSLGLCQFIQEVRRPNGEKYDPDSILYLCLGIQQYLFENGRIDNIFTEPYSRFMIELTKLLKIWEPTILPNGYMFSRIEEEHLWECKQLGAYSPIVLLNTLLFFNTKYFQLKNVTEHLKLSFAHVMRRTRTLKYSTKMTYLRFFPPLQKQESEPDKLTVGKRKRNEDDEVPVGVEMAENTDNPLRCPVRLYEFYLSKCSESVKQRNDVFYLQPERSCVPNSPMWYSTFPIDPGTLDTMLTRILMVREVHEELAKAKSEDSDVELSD
UniProt Q6PJT7: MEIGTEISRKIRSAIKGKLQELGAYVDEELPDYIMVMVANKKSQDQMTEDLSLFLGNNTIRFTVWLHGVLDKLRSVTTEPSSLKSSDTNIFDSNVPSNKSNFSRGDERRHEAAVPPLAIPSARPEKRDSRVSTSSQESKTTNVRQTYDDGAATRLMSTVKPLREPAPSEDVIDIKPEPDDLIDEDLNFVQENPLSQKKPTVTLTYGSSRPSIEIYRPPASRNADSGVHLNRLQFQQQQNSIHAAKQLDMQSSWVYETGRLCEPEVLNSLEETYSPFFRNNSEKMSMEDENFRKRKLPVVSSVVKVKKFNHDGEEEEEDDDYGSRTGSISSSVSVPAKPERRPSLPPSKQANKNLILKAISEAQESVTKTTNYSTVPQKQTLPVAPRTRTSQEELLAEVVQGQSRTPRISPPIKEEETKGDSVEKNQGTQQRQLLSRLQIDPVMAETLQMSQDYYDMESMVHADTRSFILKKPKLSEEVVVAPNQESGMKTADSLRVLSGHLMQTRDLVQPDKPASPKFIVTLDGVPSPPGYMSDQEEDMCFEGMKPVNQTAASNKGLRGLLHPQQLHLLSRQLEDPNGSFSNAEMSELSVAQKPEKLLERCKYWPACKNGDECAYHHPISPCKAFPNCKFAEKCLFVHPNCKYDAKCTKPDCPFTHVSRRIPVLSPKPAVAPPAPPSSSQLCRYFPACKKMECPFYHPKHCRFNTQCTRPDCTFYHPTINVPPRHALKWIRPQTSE
UniProt Q969J2: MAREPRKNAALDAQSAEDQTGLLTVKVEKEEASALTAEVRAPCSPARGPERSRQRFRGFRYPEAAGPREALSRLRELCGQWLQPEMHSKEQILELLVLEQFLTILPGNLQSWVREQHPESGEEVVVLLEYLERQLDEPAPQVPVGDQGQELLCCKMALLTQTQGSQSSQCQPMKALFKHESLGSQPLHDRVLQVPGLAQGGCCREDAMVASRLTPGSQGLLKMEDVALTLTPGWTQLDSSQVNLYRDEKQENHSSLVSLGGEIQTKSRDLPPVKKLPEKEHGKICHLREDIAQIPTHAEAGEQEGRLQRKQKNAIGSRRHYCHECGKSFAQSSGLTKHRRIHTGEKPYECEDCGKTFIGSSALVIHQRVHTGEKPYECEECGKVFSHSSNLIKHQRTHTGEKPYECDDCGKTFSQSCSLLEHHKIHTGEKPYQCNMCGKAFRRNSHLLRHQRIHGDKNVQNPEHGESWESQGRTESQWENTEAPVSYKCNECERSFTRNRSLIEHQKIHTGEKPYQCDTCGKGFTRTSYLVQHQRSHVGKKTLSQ

Tests used:
Experiment in all cases: log2 fold change, soluble protein after heating vs DMSO (PISA); higher = thermal stabilisation; K562 cells, 10 uM, 30 min; active = over 0.2 and 3.5 SD of the protein, either way, in both replicates (recomputed)
[1] = compound: C#Cc1cccc(Nc2ncnc3cc(OCCOC)c(OCCOC)cc23)c1 [erlotinib]
Outline: (§1)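 K562 cells at 2×10^6 cells/mL were treated for 30 min with 10 μM compound, and aliquots were heated for 3 min over 48°C-58°C before pooling. Extraction used PBS with 0.5% NP-40 at 4°C, and soluble protein was the supernatant after 21,000xg for 90 min, measured by TMTpro 16plex LC-MS/MS with channel sums equalised. Thermal stability values, relative to control samples and from duplicates, are log2 fold changes.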

[2] = compound: C/C(=N\NC(=O)C1=CC(=CC=C1)S(=O)(=O)N2CCOCC2)/C3=C(C=CC(=C3)Cl)O
Outline: as §1

[3] = compound: C1=CC(=C(C=C1Cl)C2=NC3=NC=CN=C3C(=N2)NC4=CC=NC=C4)F
Outline: as §1

[4] = compound: C1=CC(=CC=C1C2=NC3=C(N2)C=C(C=C3)C(=O)N)OC4=CC=C(C=C4)Cl
Outline: as §1

[5] = compound: C1=CC2=C(C=CC(=C2)/C=C\3/C(=O)NC(=NCC4=CC=CS4)S3)N=C1
Outline: as §1

[6] = compound: C1=CC=C(C=C1)C2=NC(=C(N2)C3=CC=NC=C3)C4=CC(=C(C=C4)Cl)O
Outline: as §1

[7] = compound: C1=CC=C2C(=C1)C3=NNC4=CC=CC(=C43)C2=O
Outline: as §1

[8] = compound: C1CCN(C1)C(=O)NC2=CC=CC(=C2)NC3=NC=C(C(=N3)NCCC4=CN=CN4)Br
Outline: as §1

[9] = compound: C1CN(CCC1(CC2=CC=C(C=C2)Cl)N)C3=NC=NC4=C3C=CN4
Outline: as §1

[10] = compound: C1=CC2=NC=CN=C2C=C1/C=C/3\C(=O)NC(=O)S3
Outline: as §1

Target	log2 fold change [1]	log2 fold change [2]	log2 fold change [3]	log2 fold change [4]	log2 fold change [5]	log2 fold change [6]	log2 fold change [7]	log2 fold change [8]	log2 fold change [9]	log2 fold change [10]
XPC (UniProt Q01831)	inactive: -0.014	inactive: 0.114	inactive: -0.072	inactive: 0.037	inactive: -0.088	inactive: -0.628	inactive: -0.028			
ZDHHC16 (UniProt Q969W1)	inactive: 0.061			inactive: -0.024						
ZFYVE21 isoform 2 (UniProt Q9BQ24)	inactive: 0.074	inactive: 0.262		inactive: 0.017	inactive: -0.04	inactive: 0.044	inactive: -0.05	inactive: 0.077	inactive: 0.097	
ZFPM1 (UniProt Q8IX07)	inactive: 0.172		inactive: -0.045	inactive: 0.096		inactive: 0.034		inactive: -0.156	inactive: 0.177	inactive: 0.17
XRCC1 (UniProt P18887)	inactive: 0.036	inactive: -0.392	inactive: 0.04	inactive: 0.046	inactive: 0.304	inactive: -0.035	inactive: 0.042	inactive: 0.043	inactive: 0.117	
ZDHHC7 isoform 2 (UniProt Q9NXF8)	inactive: 0.09	inactive: 0.057	inactive: 0.093	inactive: 0.022	inactive: 0.161	inactive: 0.026	inactive: 0.01	inactive: 0.028	inactive: 0	
ZFP91 (UniProt Q96JP5)	inactive: -0.004	inactive: -0.069	inactive: 0.007	inactive: 0.017	inactive: -0.007	inactive: -0.06	inactive: -0.004	inactive: 0.004	inactive: -0.042	inactive: 0.051
YTHDF2 (UniProt Q9Y5A9)	inactive: -0.013	inactive: 0.023	inactive: -0.01	inactive: -0.01	inactive: -0.024	inactive: -0.041	inactive: 0.026	inactive: -0.06	inactive: -0.024	inactive: 0.014
ZDHHC13 (UniProt Q8IUH4)	inactive: 0.045	inactive: -0.019	inactive: -0.189	inactive: -0.115	inactive: -0.018	inactive: 0.339	inactive: -0.007			
YME1L1 (UniProt Q96TA2)	inactive: 0.032	inactive: -0.028	inactive: -0.029	inactive: 0.013	inactive: 0.019	inactive: -0.037	inactive: -0.008	inactive: 0.014	inactive: 0.008	inactive: 0.01
XPNPEP3 (UniProt Q9NQH7)	inactive: 0.019	active: -0.275	inactive: 0.017	inactive: 0.06	inactive: 0.067	inactive: -0.005	inactive: 0	inactive: 0.005	inactive: 0.083	inactive: 0.026
XPO7 (UniProt E7ESC6)	inactive: -0.026	inactive: 0.064	inactive: 0.041	inactive: 0.022	inactive: -0.001	inactive: 0.041	inactive: -0.009	inactive: 0.015	inactive: 0.031	inactive: 0.011
YJU2 (UniProt Q9BW85)	inactive: 0.035	inactive: 0	inactive: 0.098	inactive: -0.01	inactive: 0.007	inactive: -0.106	inactive: 0.038	inactive: -0.036	inactive: 0.033	inactive: 0.033
ZDHHC20 (UniProt Q5W0Z9)	inactive: 0.163	inactive: -0.048	inactive: 0.152	inactive: 0.14	inactive: -0.125	inactive: -0.232	inactive: -0.044	inactive: -0.025	inactive: 0.059	inactive: 0.095
XRCC2 (UniProt O43543)	inactive: -0.014		inactive: -0.046	inactive: 0.081						
ZADH2 (UniProt Q8N4Q0)	inactive: 0.005	active: 0.372	inactive: -0.011	inactive: 0.052	inactive: 0.042	inactive: 0.121	inactive: 0.03	inactive: 0.001	inactive: 0.008	inactive: -0.05
ZDHHC4 (UniProt Q9NPG8)	inactive: 0.178		inactive: 0.096	inactive: 0.053						inactive: -0.022
YIF1A (UniProt O95070)	inactive: -0.143	inactive: -0.048		inactive: -0.014	inactive: -0.034	inactive: 0.118	inactive: -0.008	inactive: 0	inactive: 0.117	inactive: 0.039
ZMYM4 (UniProt Q5VZL5)	inactive: 0.077		inactive: 0.176	inactive: -0.034		inactive: 0.018		inactive: 0.071	inactive: -0.091	inactive: -0.028
ZDHHC3 isoform 2 (UniProt Q9NYG2)	inactive: 0.005	inactive: 0.049	inactive: 0.074	inactive: -0.012	inactive: 0.076	inactive: 0.045	inactive: -0.02	inactive: -0.03	inactive: -0.023	inactive: 0.011
ZEB2 (UniProt O60315)	inactive: 0.101		inactive: -0.099	inactive: 0.029		inactive: -0.053		inactive: -0.106	inactive: -0.149	inactive: -0.177
ZEB1 isoform 2 (UniProt P37275)	inactive: -0.057	inactive: 0.083		inactive: 0.164	inactive: -0.016		inactive: -0.014	inactive: 0.263	inactive: 0.117	inactive: -0.022
ZCCHC8 (UniProt Q6NZY4)	inactive: -0.045	inactive: 0.007	inactive: -0.005	inactive: 0.028	inactive: -0.016	inactive: -0.008	inactive: 0.046	inactive: -0.01	inactive: -0.057	inactive: 0.058
XPO4 (UniProt Q9C0E2)	inactive: -0.011	inactive: 0.008	inactive: 0.031	inactive: -0.01	inactive: 0.041	inactive: -0.018	inactive: -0.042	inactive: 0.022	inactive: -0.019	inactive: 0.077
ZDHHC17 (UniProt Q8IUH5)	inactive: 0.091	inactive: -0.004	inactive: -0.006	inactive: -0.046	inactive: 0.064	inactive: 0.002	inactive: -0.021	inactive: 0.011	inactive: 0.022	inactive: 0.11
ZC3H14 (UniProt Q6PJT7)	inactive: 0.049	inactive: 0.092	inactive: -0.031	inactive: -0.076	inactive: -0.194	inactive: -0.04	inactive: -0.049	inactive: -0.052	inactive: 0.034	inactive: 0.036
ZKSCAN4 (UniProt Q969J2)		inactive: -0.153			inactive: -0.076	inactive: -0.221	inactive: -0.056	inactive: -0.065	inactive: -0.014	
ZC3H7B (UniProt Q9UGR2)						inactive: -0.81		inactive: -0.261	inactive: 0.124	
ZDHHC12 isoform 3 (UniProt Q96GR4)		inactive: 0.057			inactive: -0.005		inactive: -0.012	inactive: -0.06	inactive: -0.244	
ZDHHC6 (UniProt Q9H6R6)			inactive: -0.083							

Part of the list above, reformatted.
Target | log2 fold change [1] | log2 fold change [2] | log2 fold change [3] | log2 fold change [4] | log2 fold change [5] | log2 fold change [6] | log2 fold change [7] | log2 fold change [8] | log2 fold change [9] | log2 fold change [10]
ZDHHC20 (UniProt Q5W0Z9) | inactive: 0.163 | inactive: -0.048 | inactive: 0.152 | inactive: 0.14 | inactive: -0.125 | inactive: -0.232 | inactive: -0.044 | inactive: -0.025 | inactive: 0.059 | inactive: 0.095
XRCC2 (UniProt O43543) | inactive: -0.014 |  | inactive: -0.046 | inactive: 0.081 |  |  |  |  |  | 
ZADH2 (UniProt Q8N4Q0) | inactive: 0.005 | active: 0.372 | inactive: -0.011 | inactive: 0.052 | inactive: 0.042 | inactive: 0.121 | inactive: 0.03 | inactive: 0.001 | inactive: 0.008 | inactive: -0.05
ZDHHC4 (UniProt Q9NPG8) | inactive: 0.178 |  | inactive: 0.096 | inactive: 0.053 |  |  |  |  |  | inactive: -0.022
YIF1A (UniProt O95070) | inactive: -0.143 | inactive: -0.048 |  | inactive: -0.014 | inactive: -0.034 | inactive: 0.118 | inactive: -0.008 | inactive: 0 | inactive: 0.117 | inactive: 0.039
ZMYM4 (UniProt Q5VZL5) | inactive: 0.077 |  | inactive: 0.176 | inactive: -0.034 |  | inactive: 0.018 |  | inactive: 0.071 | inactive: -0.091 | inactive: -0.028
ZDHHC3 isoform 2 (UniProt Q9NYG2) | inactive: 0.005 | inactive: 0.049 | inactive: 0.074 | inactive: -0.012 | inactive: 0.076 | inactive: 0.045 | inactive: -0.02 | inactive: -0.03 | inactive: -0.023 | inactive: 0.011
